Experimental data: PubChem BioAssay AID602196 (INSERM, 2012)

Purpose: 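Modifiers of cisplatin sensitivity in A549 cells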
Cells: human A549 lung cancer cells
Knock-down reagent: siRNA pair against human genes
Duration: 48 h transfection before cisplatin; time from cisplatin to read-out not stated
Challenge: cisplatin at a dose killing half of control-siRNA cells; exact dose and duration not given
Detection: 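Cisplatin cell death as a shift from the 50% death seen with control siRNA; siRNAs toxic or growth-blocking alone scored 0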
Scale: two-siRNA summed score (-2 to +2): higher = both siRNAs protect from cisplatin killing; -2 means both sensitise; mean protection from cisplatin (shift in death) and protection from cisplatin (shift in death), siRNA C: higher = protection from cisplatin killing
Rule for the call: 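siRNAs harmful alone (LDH or WST-1) get 0; others get +1 for less and -1 for more cisplatin killing; genes are active when the two siRNAs give the same sign, summing to ±2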
Meaning of the calls: active = both siRNAs shift cisplatin killing the same way; inactive = no consistent shift, or siRNA harmful alone
The deposit covers about 23,000 reagents; below is an unselected part. Over the whole deposit, 455 (2%) got an active call. 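Active includes both protection and sensitisation; some change values fall well beyond the stated -50 to +50 range.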 Unmarked entries are inactive. Not all columns of the deposit are shown. Not stated in the record: the amount of reagent.

no.	Gene	PubChem SID	two-siRNA summed score (-2 to +2)	mean protection from cisplatin (shift in death) (%)	protection from cisplatin (shift in death), siRNA C (%)
1	GPR155 (GeneID 151556)	SID131522465	1	18.8	22.4
2	LRRC49 (GeneID 54839)	SID131516735	0	11.5	10.1
3	UBE3B (GeneID 89910)	SID131504658	0	-4.8	-17.5
4	FST (GeneID 10468)	SID131505172	0	-3.6	2.5
5	ATOSA (GeneID 56204)	SID131512286	0	5.3	4.6
6	ZNF177 (GeneID 7730)	SID131508195	0	0.8	-2
7	LOC401131 (GeneID 401131)	SID131515384	0	9.1	10.9
8	PRSS36 (GeneID 146547)	SID131506801	0	-1	8.5
9	TSGA13 (GeneID 114960)	SID131504378	0	-5.6	-5.2
10	PNO1 (GeneID 56902)	SID131505099	0	-3.8	-8.1
11	CTNND2 (GeneID 1501)	SID131507368	0	-0.2	-5.8
12	DCAF10 (GeneID 79269)	SID131515860	0	9.8	14.3
13	KRTAP5-1 (GeneID 387264)	SID131513234	0	6.4	3.9
14	CHEK1 (GeneID 1111)	SID131508798	0	1.5	10.4
15	FH (GeneID 2271)	SID131516942	0	12	2.1
16	MGC13053 (retired record) (GeneID 84796)	SID131519266	1	4.3	-1.9
17	CA6 (GeneID 765)	SID131506441	0	-1.5	2.4
18	NOL4 (GeneID 8715)	SID131512112	0	5.1	14.7
19	PNPLA5 (GeneID 150379)	SID131507123	0	-0.5	-0.7
20	ELP1 (GeneID 8518)	SID131508165	0	0.7	0.3
21	PROCR (GeneID 10544)	SID131503918	0	-7.2	-0.8
22	NUP153 (GeneID 9972)	SID131500657	-1	-18.3	-31.7

Sorted by “protection from cisplatin (shift in death), siRNA C (%)” (high to low): 9 of the entries above.
Gene	PubChem SID	two-siRNA summed score (-2 to +2)	mean protection from cisplatin (shift in death) (%)	protection from cisplatin (shift in death), siRNA C (%)
DCAF10 (GeneID 79269)	SID131515860	0	9.8	14.3
CHEK1 (GeneID 1111)	SID131508798	0	1.5	10.4
PRSS36 (GeneID 146547)	SID131506801	0	-1	8.5
KRTAP5-1 (GeneID 387264)	SID131513234	0	6.4	3.9
FH (GeneID 2271)	SID131516942	0	12	2.1
MGC13053 (retired record) (GeneID 84796)	SID131519266	1	4.3	-1.9
TSGA13 (GeneID 114960)	SID131504378	0	-5.6	-5.2
CTNND2 (GeneID 1501)	SID131507368	0	-0.2	-5.8
PNO1 (GeneID 56902)	SID131505099	0	-3.8	-8.1

Continued:
no.	Gene	PubChem SID	two-siRNA summed score (-2 to +2)	mean protection from cisplatin (shift in death) (%)	protection from cisplatin (shift in death), siRNA C (%)
23	LOC400652	SID131518055	0	16.2	28.3
24	NEBL (GeneID 10529)	SID131517635	0	14.1	12.7
25	NEBL (GeneID 10529)	SID131519891	1	7.9	10.1
26	STARD5 (GeneID 80765)	SID131502394	-1	-2.7	16.3
27	LOC440985	SID131515015	0	8.6	10.3
28	LOC159176	SID131522320	1	17.7	12.4
29	OR8U3 (GeneID 219479)	SID131513881	0	7.1	7
30	RPL23AP96 (GeneID 392181)	SID131515049	0	8.6	7.6
31	PSMC2 (GeneID 5701)	SID131504465	0	-5.3	-12.2
32	KRT23 (GeneID 25984)	SID131515735	0	9.6	10.3
33	ARPC2 (GeneID 10109)	SID131514892	0	8.4	12.8
34	LIPT1 (GeneID 51601)	SID131522463	1	18.8	27.3
35	MAP3K9 (GeneID 4293)	SID131521957	1	15.6	23.6
36	GNA14 (GeneID 9630)	SID131504741	0	-4.6	-3.1
37	SLC25A12 (GeneID 8604)	SID131514619	0	8	13.2
38	LOC442373	SID131516846	0	11.8	14.5
39	USP43 (GeneID 124739)	SID131501916	-1	-6.6	-21.2
40	LINC02875 (GeneID 388407)	SID131522656	1	21.4	32.8
41	SWT1 (GeneID 54823)	SID131506215	0	-1.8	-5.2
42	IFNG (GeneID 3458)	SID131500340	-2 (active)	-21.1	-19.4
43	ACTR2P2 (GeneID 284441)	SID131513870	0	7.1	7.6
44	GINS4 (GeneID 84296)	SID131517775	0	14.7	7.1
45	LINC00469 (GeneID 283982)	SID131508868	0	1.6	2.9
46	CHKB (GeneID 1120)	SID131507701	0	0.2	7.5
47	MTUS2 (GeneID 23281)	SID131509767	0	2.5	-2.7
48	OR14I1 (GeneID 401994)	SID131521352	1	13.1	6
49	LINC02483 (GeneID 441025)	SID131511491	0	4.4	1.7
50	RP2 (GeneID 6102)	SID131505416	0	-3.2	5.9
51	LOC220686	SID131515294	0	8.9	-1.5
52	LOC387787	SID131520569	1	10.3	17.2
53	MEDAG (GeneID 84935)	SID131514941	0	8.4	1.4
54	MSRB1 (GeneID 51734)	SID131504411	0	-5.5	-10.1
55	LOC441172	SID131520079	1	8.6	16.4
56	NSG1 (GeneID 27065)	SID131502997	0	-16.3	0.9
57	LOC440684	SID131520303	1	9.4	21.9
